# From the supplement of paper PMC9135407
# Several values for one entry are separate records, joined by “and”; a condition that tells them apart may be missing. Equal entries are not always repeated. Structures can show the parent of a compound that is named as a salt. ± gives the standard deviation of the averaged measurements. This is one part of the list. Plates or batches differ in their baseline, so values are only roughly comparable.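 Assay uses culture-activated primary human stellate myofibroblasts; lipid droplet recovery indicates inactivation. Measured: proportion of Hoechst-counted cells over a plate-specific Bodipy cutoff, duplicate wells, DMSO and nortriptyline as per-plate negative and positive controls. A hit scores, control-normalized, above the plate's top-tenth-percentile nortriptyline wells or ranks among its three best wells. Final well concentrations not reported.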
# Test system: primary human hepatic stellate cells (donor 1)
# Assay: percent Bodipy-positive cells; higher = more lipid droplet accumulation
# Details: 48 h
# [1] = library stock concentration: 80 uM
# [2] = library stock concentration: 400 uM
# [3] = library stock concentration: 2 mM
# [4] = library stock concentration: 3.33 mM
# [5] = library stock concentration: 10 mM
# [6] = library stock concentration: 1 mM
compound,measurement,setting,value
COC(=O)C1=C(C)NC(C)=C([N+](=O)[O-])C1c1ccccc1C(F)(F)F (stereo unspecified),percent Bodipy-positive cells,library stock concentration: 14 mM,22.7 ± 14%
COc1ccc(-c2ccc3c(N4CCOC[C@@H]4C)nc(N4CCOC[C@@H]4C)nc3n2)cc1CO,percent Bodipy-positive cells,[1],8.84 ± 7.2%
same,percent Bodipy-positive cells,[2],8.057 ± 0.048%
same,percent Bodipy-positive cells,[3],7.62 ± 0.4%
same,percent Bodipy-positive cells,[4],6.51 ± 4.2%
same,percent Bodipy-positive cells,[5],16.6% and 10.9%
CC(C)Oc1ccc(C(=O)c2ccc(NC3=NCCN3)cc2)cc1,percent Bodipy-positive cells,[6],19.9 ± 6.3%
COCC[n+]1c2c(n(Cc3cnccn3)c1C)C(=O)c1ccccc1C2=O [YM155 (Sepantronium Bromide)],percent Bodipy-positive cells,[4],59.8 ± 15%
same,percent Bodipy-positive cells,[5],97.82 ± 0.58%
O=C(NCCO)c1cccc(-c2cc(Nc3ccc(OC(F)(F)F)cc3)ncn2)c1,percent Bodipy-positive cells,[4],34.6 ± 9.2%
same,percent Bodipy-positive cells,[5],85.4 ± 3.1%
COCCCCCCCCCCCC(=O)O [12-Methoxydodecanoic acid],percent Bodipy-positive cells,[6],11.9 ± 12%
FC(F)(F)c1ccc(/C=C\c2cc(Cl)cc(Cl)c2)cc1,percent Bodipy-positive cells,[6],10 ± 5.3%
Nc1ncnc2c1c(-c1ccc(Oc3ccccc3)cc1)cn2C1CCCC1,percent Bodipy-positive cells,[5],48.1 ± 14%
CCN(CC)CCc1nc(-c2ccccc2)no1,percent Bodipy-positive cells,[5],30.6 ± 8.1%
CCN(CC)CCc1nc(-c2ccccc2)no1 [Oxalamine citrate salt],percent Bodipy-positive cells,,10.2 ± 1.2%
"CC(C)NCC(O)c1ccc(O)c(O)c1 (single isomer, unassigned; (+)) [(+)-Isoproterenol (+)-bitartrate salt]",percent Bodipy-positive cells,,8.51 ± 3%
COc1ccc([C@]2(C#N)CC[C@@H](C(=O)O)CC2)cc1OC1CCCC1 [Cilomilast],percent Bodipy-positive cells,[4],7.64 ± 3%
same,percent Bodipy-positive cells,[5],14.9 ± 1.6%
CCOc1c2c(c(OCC)c3ccccc13)C(=O)N(c1ccc(CC(=O)NS(=O)(=O)c3ccccc3)cc1)C2,percent Bodipy-positive cells,[6],12.1 ± 3.6%
CNCC(O)c1ccc(OC(=O)C(C)(C)C)c(OC(=O)C(C)(C)C)c1 (stereo unspecified) [Dipivefrin hydrochloride],percent Bodipy-positive cells,,26.8 ± 5.2%
CC(C)S(=O)(=O)Nc1ccc(F)c(C(=O)c2c[nH]c3ncc(-c4cccnc4)cc23)c1F,percent Bodipy-positive cells,[1],12.3 ± 0.9%
same,percent Bodipy-positive cells,[2],13.1 ± 6%
same,percent Bodipy-positive cells,[3],10.9 ± 4.6%
same,percent Bodipy-positive cells,[5],15.9 ± 1%
"CC(=O)NC1[C@@H](O)OC(CO)[C@@H](O)[C@H]1O[C@H](C)C(=O)O (stereo in doubt) [Muramic acid, N-acetyl]",percent Bodipy-positive cells,,29.8 ± 2.2%
O=S(=O)(O)NC1CCCCC1 [Cyclamic  acid],percent Bodipy-positive cells,[4],14 ± 9.4%
same,percent Bodipy-positive cells,[5],20.2 ± 4.4%
O=S(=O)(O)NC1CCCCC1,percent Bodipy-positive cells,[5],23.2 ± 3.9%
CC[C@]12CCCN3CCc4c(n(c5ccccc45)[C@](O)(C(=O)OC)C1)[C@@H]32 [Epivincamine],percent Bodipy-positive cells,,20.2 ± 0.44%
CC(C)NC[C@@H](O)COc1cccc2ccccc12 [Dexpropranolol hydrochloride],percent Bodipy-positive cells,library stock concentration: 6.8 mM,61.5 ± 5.9%
same,percent Bodipy-positive cells,[5],21.6 ± 4.4%
CC(C)NC[C@@H](O)COc1cccc2ccccc12 [(R)-Propranolol hydrochloride],percent Bodipy-positive cells,,43.04 ± 0.43%
CC(C)NC[C@@H](O)COc1cccc2ccccc12 [(R)-(+)-Propranolol hydrochloride],percent Bodipy-positive cells,[5],46.2 ± 4.8%
OC1(c2ccc(Cl)cc2)CCN(Cc2c[nH]c3ccccc23)CC1,percent Bodipy-positive cells,[5],99.81 ± 0.27%
CCc1cn([C@H]2C[C@H](O)[C@@H](CO)O2)c(=O)[nH]c1=O [Edoxudine],percent Bodipy-positive cells,library stock concentration: 7.8 mM,24.1 ± 12%
same,percent Bodipy-positive cells,[5],60.6 ± 3.4%
O=C(NCc1cccc(O)c1)Nc1nc(-c2ccncc2)cs1,percent Bodipy-positive cells,[5],100%
CCCCC/C=C\C[C@@H](O)/C=C/C=C/C=C\[C@@H](O)CCCC(=O)O [Leukotriene B4],percent Bodipy-positive cells,library stock concentration: 100 uM,16.5 ± 15%
COc1cc2c(cc1C(F)(F)F)N(C(=O)Nc1cc(F)cc(-c3cccnc3)c1)CC2,percent Bodipy-positive cells,[5],99.3 ± 1%
COC(=O)C1=CC[C@@]23CC[C@@H]([C@@](C)(/C=C/C=C(\C)C(=O)O)OC2=O)[C@@]3(OC(C)=O)CC1 [Pseudolaric Acid B],percent Bodipy-positive cells,[6],17.9 ± 4.3%
O=c1[nH]c(=O)n(C2CCCO2)cc1F (stereo unspecified),percent Bodipy-positive cells,[4],7.79 ± 1.7%
same,percent Bodipy-positive cells,[5],7.44% and 9.57%
O=c1[nH]c(=O)n(C2CCCO2)cc1F (stereo unspecified) [Ftorafur],percent Bodipy-positive cells,[5],7.58 ± 2.3%
Cc1cc2c(F)c(Oc3ncnn4cc(OC[C@@H](C)OC(=O)[C@H](C)N)c(C)c34)ccc2[nH]1,percent Bodipy-positive cells,[4],9.92 ± 2.7%
same,percent Bodipy-positive cells,[5],35.9 ± 3.3%
CC(NCCC(c1ccccc1)c1ccccc1)c1ccccc1 (stereo unspecified) [Fendiline hydrochloride],percent Bodipy-positive cells,,98.2 ± 2.5%
same,percent Bodipy-positive cells,[5],78.8 ± 3.6%
C[C@@H]1COCCN1c1cc(C2(S(C)(=O)=O)CC2)nc(-c2cccc3[nH]ccc23)n1,percent Bodipy-positive cells,[1],7 ± 2.8%
same,percent Bodipy-positive cells,[2],17.8 ± 9.8%
same,percent Bodipy-positive cells,[3],3.96 ± 0.99%
same,percent Bodipy-positive cells,[5],7.32 ± 1.9%
CCOC(=O)Nc1cc(-c2ccc(C)c(NS(C)(=O)=O)c2)nn2c(C)nnc12 [Bromosporine],percent Bodipy-positive cells,[4],47.5 ± 3.3%
same,percent Bodipy-positive cells,[5],77.5 ± 4.9%
"CCC(CO)Nc1nc(NCc2ccccc2)c2ncn(C(C)C)c2n1 [Roscovitine, (S)-Isomer]",percent Bodipy-positive cells,[4],17.5 ± 0.43%
CCCCCCCCCCCCC(O)C(=O)O (stereo unspecified) [2-Hydroxymyristic acid],percent Bodipy-positive cells,[6],5.44 ± 3.3%
CCCCCCCCCCCCC(O)C(=O)O (stereo unspecified) [2-Hydroxymyristic Acid],percent Bodipy-positive cells,[6],9.46 ± 1.8%
CCN(CC)CCOc1ccc(Cc2ccccc2)cc1.O=C(O)/C=C/C(=O)O [DPPE fumarate],percent Bodipy-positive cells,[5],56.5 ± 3.8%
COc1ccc(-c2cnc3c(-c4ccsc4)cnn3c2)cc1 [VEGF Receptor 2 Kinase Inhibitor IV],percent Bodipy-positive cells,[4],13.9 ± 3.6%
C#CC[C@H](c1nc2cc(Cl)ccc2c(=O)n1Nc1ccccc1)N(CCCN)C(=O)c1cccc(Cl)c1F,percent Bodipy-positive cells,[4],99.2 ± 1.2%
same,percent Bodipy-positive cells,[5],98.3 ± 2.4%
Cc1c(N(C)CS(=O)(=O)O)c(=O)n(-c2ccccc2)n1C [Dipyrone],percent Bodipy-positive cells,,10.5 ± 6.5%
same,percent Bodipy-positive cells,library stock concentration: 6 mM,9.82 ± 2.3%
same,percent Bodipy-positive cells,[5],26.4 ± 10%
CCCCCC/C=C\CCCCCCCC(=O)OCC [Palmitoleic Acid ethyl ester],percent Bodipy-positive cells,[6],10.6 ± 3.6%
CN(C)[C@@H]1C(O)=C(C(=O)NCN2CCCC2)C(=O)[C@@]2(O)C(O)=C3C(=O)c4c(O)cccc4[C@@](C)(O)[C@H]3C[C@@H]12 [Rolitetracycline],percent Bodipy-positive cells,,7.84 ± 1.4%
CN(C)[C@@H]1C(O)=C(C(=O)NCN2CCCC2)C(=O)[C@@]2(O)C(O)=C3C(=O)c4c(O)cccc4[C@@](C)(O)[C@H]3C[C@@H]12,percent Bodipy-positive cells,[5],16.8 ± 10%
C[C@@H]1CCN(C(=O)CC#N)C[C@@H]1N(C)c1ncnc2[nH]ccc12,percent Bodipy-positive cells,[2],8.95 ± 2.2%
same,percent Bodipy-positive cells,[3],24.8 ± 14%
same,percent Bodipy-positive cells,[4],6.43% and 7.49%
same,percent Bodipy-positive cells,[5],21.7% and 8.79% and 11.9%
CC(=O)OCC(CCn1cnc2cnc(N)nc21)COC(C)=O,percent Bodipy-positive cells,[5],7.68 ± 0.51%
CC(=O)OCC(CCn1cnc2cnc(N)nc21)COC(C)=O [Famciclovir],percent Bodipy-positive cells,[4],14.2 ± 2%
same,percent Bodipy-positive cells,library stock concentration: 6.2 mM,7.66% and 9.36%
COc1ccc([C@@H]2CC(=O)c3c(O)cc(O[C@@H]4O[C@H](CO)[C@@H](O)[C@H](O)[C@H]4O[C@@H]4O[C@@H](C)[C@H](O)[C@@H](O)[C@H]4O)cc3O2)cc1O [Neohesperidin],percent Bodipy-positive cells,[4],10 ± 2.9%
same,percent Bodipy-positive cells,[5],16.2 ± 0.69%

# 16 entries from above, set out differently.
compound | measurement | setting | value
O=c1[nH]c(=O)n(C2CCCO2)cc1F (stereo unspecified) | percent Bodipy-positive cells | [5] | 7.44% and 9.57%
O=c1[nH]c(=O)n(C2CCCO2)cc1F (stereo unspecified) [Ftorafur] | percent Bodipy-positive cells | [5] | 7.58 ± 2.3%
Cc1cc2c(F)c(Oc3ncnn4cc(OC[C@@H](C)OC(=O)[C@H](C)N)c(C)c34)ccc2[nH]1 | percent Bodipy-positive cells | [4] | 9.92 ± 2.7%
same | percent Bodipy-positive cells | [5] | 35.9 ± 3.3%
CC(NCCC(c1ccccc1)c1ccccc1)c1ccccc1 (stereo unspecified) [Fendiline hydrochloride] | percent Bodipy-positive cells |  | 98.2 ± 2.5%
same | percent Bodipy-positive cells | [5] | 78.8 ± 3.6%
C[C@@H]1COCCN1c1cc(C2(S(C)(=O)=O)CC2)nc(-c2cccc3[nH]ccc23)n1 | percent Bodipy-positive cells | [1] | 7 ± 2.8%
same | percent Bodipy-positive cells | [2] | 17.8 ± 9.8%
same | percent Bodipy-positive cells | [3] | 3.96 ± 0.99%
same | percent Bodipy-positive cells | [5] | 7.32 ± 1.9%
CCOC(=O)Nc1cc(-c2ccc(C)c(NS(C)(=O)=O)c2)nn2c(C)nnc12 [Bromosporine] | percent Bodipy-positive cells | [4] | 47.5 ± 3.3%
same | percent Bodipy-positive cells | [5] | 77.5 ± 4.9%
CCC(CO)Nc1nc(NCc2ccccc2)c2ncn(C(C)C)c2n1 [Roscovitine, (S)-Isomer] | percent Bodipy-positive cells | [4] | 17.5 ± 0.43%
CCCCCCCCCCCCC(O)C(=O)O (stereo unspecified) [2-Hydroxymyristic acid] | percent Bodipy-positive cells | [6] | 5.44 ± 3.3%
CCCCCCCCCCCCC(O)C(=O)O (stereo unspecified) [2-Hydroxymyristic Acid] | percent Bodipy-positive cells | [6] | 9.46 ± 1.8%
CCN(CC)CCOc1ccc(Cc2ccccc2)cc1.O=C(O)/C=C/C(=O)O [DPPE fumarate] | percent Bodipy-positive cells | [5] | 56.5 ± 3.8%
